According to patent publication US20170112831A1, “USE OF CCR1 ANTAGONISTS AS A TREATMENT FOR TUMORS OF THE CENTRAL NERVOUS SYSTEM” (priority 2015, published 2017):
At least one structure is not confirmed: it was looked up by name or label, or the drawing left a doubt.

Assays:
[1] = system: U87 human glioblastoma cells; test: Microglia stimulated invasion of U87 cells, 3D invasion culture assay; type: cell-based; settings: 500 nM, 48 hours, U87 embedded in Matrigel with murine microglia, vs control (DMSO); FIG. 2
[2] = system: JNK/SAPK activity in microglia; test: Glioma-stimulated JNK/SAPK activity in microglia (SDS-PAGE, anti-phospho-JNK antibody); type: cell-based; settings: 500 nM, murine microglia treated with GL261 glioma conditioned media for 30 minutes; FIG. 3

CN(Cc1ccc(Cl)cc1)C(=O)[C@H]1CCCN1C(=O)Nc1ccc(C(F)(F)F)cc1 [Compound #2]
effect on microglia stimulated invasion of U87 human glioblastoma cells [1]: inhibited microglia sitmulated invasion of glioblastoma cells | effect on glioma-stimulation of JNK/SAPK activity in microglia [2]: glioma-stimulation of JNK/SAPK activity in microglia is dependent on CCR1 signalling
